# The list does not hold the whole screen: it is rich in T/C values a quarter to a half above the control, in often repeated tests (any T/C) and in doses without a T/C. Other doses and runs of a compound stand elsewhere. T/C is the treated group as % of the vehicle group. Some doses have a count of surviving animals in place of a T/C: the source holds a T/C of zero for them, seemingly a mark for toxic or unscored doses. Some doses without a T/C left all or most animals alive at the check, yet need not have been tolerated: survival well below the control is almost never listed, so the zero probably covers shortened survival too. For some of these results: Survivors were counted at the toxicity check, usually on the fifth day, unless a day is given; later deaths do not show. Schedules are NCI's codes, read here as Q, the interval in days (D) or hours (H), X, the number of doses. Some schedules carry Z or #; the key to these is not given. For survival time, this PubChem deposit counts one and a half times the control or more as active, and values a quarter to a half above the control carry no call in these data; other NCI protocols may use other cut-offs. Some doses were run more than once; the results are listed from low to high. Some T/C values are followed by the survivors on the day toxicity was checked, most often the fifth; without a count, all were alive then.
# How the values were obtained:
# [1] = test system: BDF1 mice, L1210 leukemia sc, survival T/C; test: NCI In Vivo Anticancer Drug Screen. Data for tumor model L1210 Leukemia (subcutaneous) in B6D2F1 (BDF1) mice; conditions: T/C endpoint: median survival time, higher T/C = longer survival
# Method in brief: (§1)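 Transplantable tumor-bearing mice; survival or tumor size recorded; result = T/C, treated vs vehicle control.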
# [2] = test system: BDF1 mice, L1210 leukemia sc; test: as above; conditions: T/C endpoint: median survival time, higher T/C = longer survival
# Method in brief: as §1
# [3] = dose: 8.4 mg/kg/injection, schedule: Q01DX001 (sc), vehicle: saline, run until all animals had died
compound,measurement,setting,value
O=C1CN=C(c2ccc[nH]2)c2cc(Cl)ccc2N1,survivor count,"[1]; dose: 120.0 mg/kg/injection, schedule: Q01DX009 (ip), vehicle: other",2 of 6
same,survivor count,"[1]; dose: 180.0 mg/kg/injection, schedule: Q01DX009 (ip), vehicle: other",0 of 6
same,survivor count,"[1]; dose: 200.0 mg/kg/injection, schedule: Q01DX009 (ip), vehicle: Klucel (hydroxypropylcellulose) (HPC)",6 of 10
same,survivor count,"[1]; dose: 270.0 mg/kg/injection, schedule: Q01DX009 (ip), vehicle: other",0 of 6
same,survivor count,"[1]; dose: 400.0 mg/kg/injection, schedule: Q01DX009 (ip), vehicle: Klucel (hydroxypropylcellulose) (HPC)",0 of 10
same,survivor count,"[1]; dose: 800.0 mg/kg/injection, schedule: Q01DX009 (ip), vehicle: steroid suspending solution",7 of 8
same,survivor count,"[1]; dose: 3855.0 mg/kg/injection, schedule: Q01DX009 (sc), vehicle: Klucel (hydroxypropylcellulose) (HPC)",5 of 8
same,T/C,"[2]; dose: 500.0 mg/kg/injection, schedule: Q01DX009 (sc), vehicle: Klucel (hydroxypropylcellulose) (HPC), evaluated on day 7",147 % of control
same,T/C,"[2]; dose: 500.0 mg/kg/injection, schedule: Q01DX009 (sc), vehicle: Klucel (hydroxypropylcellulose) (HPC), evaluated on day 30",144 % of control
same,T/C,"[2]; dose: 800.0 mg/kg/injection, schedule: Q08DX009 (sc), vehicle: Klucel (hydroxypropylcellulose) (HPC), evaluated on day 7",133 % of control
same,T/C,"[2]; dose: 800.0 mg/kg/injection, schedule: Q08DX009 (sc), vehicle: Klucel (hydroxypropylcellulose) (HPC), evaluated on day 37",133 % of control
same,T/C,"[2]; dose: 833.0 mg/kg/injection, schedule: Q01DX009 (sc), vehicle: Klucel (hydroxypropylcellulose) (HPC), evaluated on day 7",142 % of control
same,T/C,"[2]; dose: 833.0 mg/kg/injection, schedule: Q01DX009 (sc), vehicle: Klucel (hydroxypropylcellulose) (HPC), evaluated on day 30",138 % of control
same,T/C,"[2]; dose: 1388.0 mg/kg/injection, schedule: Q01DX009 (sc), vehicle: Klucel (hydroxypropylcellulose) (HPC), evaluated on day 7",144 % of control
same,T/C,"[2]; dose: 1388.0 mg/kg/injection, schedule: Q01DX009 (sc), vehicle: Klucel (hydroxypropylcellulose) (HPC), evaluated on day 30",138 % of control [7 of 8 alive]
same,T/C,"[2]; dose: 1600.0 mg/kg/injection, schedule: Q08DX009 (sc), vehicle: Klucel (hydroxypropylcellulose) (HPC), evaluated on day 7",138 % of control
same,T/C,"[2]; dose: 1600.0 mg/kg/injection, schedule: Q08DX009 (sc), vehicle: Klucel (hydroxypropylcellulose) (HPC), evaluated on day 37",138 % of control
O=NN(CCCl)C(=O)NCCCl,T/C,"[1]; dose: 3.0 mg/kg/injection, schedule: Q01DX Z (sc), vehicle: saline, evaluated on day 71",234 % of control
same,T/C,"[1]; dose: 3.0 mg/kg/injection, schedule: Q01DX Z (sc), vehicle: saline, evaluated on day 79",331 % of control
same,T/C,"[1]; dose: 3.0 mg/kg/injection, schedule: Q01DX Z (sc), vehicle: saline, run until all animals had died",240 and 284 % of control
same,T/C,"[1]; dose: 5.0 mg/kg/injection, schedule: Q01DX Z (sc), vehicle: saline, evaluated on day 71",226 % of control
same,T/C,"[1]; dose: 5.0 mg/kg/injection, schedule: Q01DX Z (sc), vehicle: saline, evaluated on day 79",578 % of control
same,T/C,"[1]; dose: 5.0 mg/kg/injection, schedule: Q01DX Z (sc), vehicle: saline, run until all animals had died",368 and 640 % of control
same,survivor count,"[1]; dose: 5.0 mg/kg/injection, schedule: Q01HX002 (ip), vehicle: saline",8 of 8
same,T/C,"[1]; dose: 8.4 mg/kg/injection, schedule: Q01DX001 (sc), vehicle: saline, evaluated on day 79",168 % of control
same,T/C,"[1]; dose: 8.4 mg/kg/injection, schedule: Q01DX001 (sc), vehicle: saline, evaluated on day 99",170 % of control
same,T/C,[1]; [3],150 and 300 % of control
same,T/C,"[1]; dose: 8.4 mg/kg/injection, schedule: Q01DX Z (sc), vehicle: saline, evaluated on day 71",165 % of control
same,T/C,"[1]; dose: 8.4 mg/kg/injection, schedule: Q01DX Z (sc), vehicle: saline, evaluated on day 79",273 % of control
same,T/C,"[1]; dose: 8.4 mg/kg/injection, schedule: Q01DX Z (sc), vehicle: saline, run until all animals had died",294 and 455 % of control
same,T/C,"[1]; dose: 14.0 mg/kg/injection, schedule: Q01DX001 (sc), vehicle: saline, evaluated on day 79",257 % of control
same,T/C,"[1]; dose: 14.0 mg/kg/injection, schedule: Q01DX001 (sc), vehicle: saline, evaluated on day 99",260 % of control
same,T/C,"[1]; dose: 14.0 mg/kg/injection, schedule: Q01DX001 (sc), vehicle: saline, run until all animals had died","175, 177, 309, 363 % of control"
same,T/C,"[1]; dose: 23.0 mg/kg/injection, schedule: Q01DX001 (sc), vehicle: saline, evaluated on day 79",378 % of control
same,T/C,"[1]; dose: 23.0 mg/kg/injection, schedule: Q01DX001 (sc), vehicle: saline, evaluated on day 99",370 % of control
same,T/C,"[1]; dose: 23.0 mg/kg/injection, schedule: Q01DX001 (sc), vehicle: saline, run until all animals had died","250, 268, 371, 900 % of control"
same,T/C,"[1]; dose: 39.0 mg/kg/injection, schedule: Q01DX001 (sc), vehicle: saline, evaluated on day 79",631 % of control
same,T/C,"[1]; dose: 39.0 mg/kg/injection, schedule: Q01DX001 (sc), vehicle: saline, evaluated on day 99",545 % of control
same,T/C,"[1]; dose: 39.0 mg/kg/injection, schedule: Q01DX001 (sc), vehicle: saline, run until all animals had died","225, 268, 857, 900 % of control"
same,survivor count,"[1]; dose: 39.0 mg/kg/injection, schedule: Q01HX002 (ip), vehicle: saline",8 of 8
same,survivor count,"[1]; dose: 48.0 mg/kg/injection, schedule: Q01DX009 (ip), vehicle: saline",8 of 8
same,T/C,"[1]; dose: 65.0 mg/kg/injection, schedule: Q01DX001 (sc), vehicle: saline, evaluated on day 79",347 % of control
same,T/C,"[1]; dose: 65.0 mg/kg/injection, schedule: Q01DX001 (sc), vehicle: saline, run until all animals had died",104 and 409 % of control
same,survivor count,"[1]; dose: 65.0 mg/kg/injection, schedule: Q01HX002 (ip), vehicle: saline",8 of 8
same,T/C,"[2]; dose: 1.08 mg/kg/injection, schedule: Q01DX Z (sc), vehicle: methylcellulose (MC)",138 % of control
same,T/C,"[2]; dose: 1.8 mg/kg/injection, schedule: Q01DX Z (sc), vehicle: saline",147 % of control
same,T/C,"[2]; dose: 5.0 mg/kg/injection, schedule: Q01DX001 (ip), vehicle: saline",142 % of control
same,T/C,"[2]; dose: 5.0 mg/kg/injection, schedule: Q01DX001 (iv), vehicle: saline",147 % of control
same,T/C,"[2]; dose: 5.0 mg/kg/injection, schedule: Q07DX Z (sc), vehicle: methylcellulose (MC)",138 % of control
same,T/C,"[2]; dose: 5.0 mg/kg/injection, schedule: Q07DX Z (sc), vehicle: saline",131 % of control
same,T/C,"[2]; dose: 5.0 mg/kg/injection, schedule: Q## X Z (sc), vehicle: saline",146 % of control
same,T/C,"[2]; dose: 6.5 mg/kg/injection, schedule: Q07DX003 (sc), vehicle: saline, evaluated on day 9",135 % of control
same,T/C,"[2]; dose: 6.5 mg/kg/injection, schedule: Q07DX003 (sc), vehicle: saline, evaluated on day 66",135 % of control
same,T/C,[2]; [3],130 and 145 % of control
same,T/C,"[2]; dose: 8.4 mg/kg/injection, schedule: Q01HX002 (ip), vehicle: saline",144 % of control [7 of 8 alive]
same,T/C,"[2]; dose: 12.0 mg/kg/injection, schedule: Q01DX009 (ip), vehicle: saline",140 % of control
same,T/C,"[2]; dose: 65.0 mg/kg/injection, schedule: Q01DX001 (sc), vehicle: saline, evaluated on day 99",135 % of control
Nc1ncnc2[nH]ncc12,survivor count,"[1]; dose: 38.9 mg/kg/injection, schedule: Q01DX Z (sc), vehicle: methylcellulose (MC)",10 of 10
same,survivor count,"[1]; dose: 64.8 mg/kg/injection, schedule: Q01DX Z (sc), vehicle: methylcellulose (MC)",8 of 10
same,survivor count,"[1]; dose: 108.0 mg/kg/injection, schedule: Q01DX Z (sc), vehicle: methylcellulose (MC)",0 of 10
same,T/C,"[2]; dose: 14.0 mg/kg/injection, schedule: Q01DX Z (sc), vehicle: methylcellulose (MC)",145 % of control
same,T/C,"[2]; dose: 16.9 mg/kg/injection, schedule: Q01DX Z (sc), vehicle: methylcellulose (MC)",133 % of control
same,T/C,"[2]; dose: 23.3 mg/kg/injection, schedule: Q01DX Z (sc), vehicle: methylcellulose (MC)",125 % of control
same,T/C,"[2]; dose: 28.1 mg/kg/injection, schedule: Q01DX Z (sc), vehicle: methylcellulose (MC)",129 % of control

# Reference: PubChem BioAssay AID250 (DTP/NCI, 2004)
